From patent publication EP0362382A1, “METHOD OF STERILIZING PLANT POLLEN” (VSESOJUZNY NAUCHNO-ISSLEDOVATELSKY INST. SELSKOKHOZYAISTV. …, priority 1988, dated 1989)
Some entries share one result that the patent states for a list of compounds. At least one structure is not confirmed: it was looked up by name or label, or the drawing left a doubt.

Tests used:
Sommerweizen = assay: Field test of gametocidal activity (sterilisation of anthers), spring wheat; type: in vivo; conditions: Moskowskaja 35
Description: (§1) Die gametozide Aktivitat der erfindungsgemäßen Sterilisationsmittel war im Feldversuch in verschiedenen bodenklimatischen Zonen mit Teilstücken von 10 m^2 Größe in drei- bis viermaliger Wiederholung festgestellt. Jedes Sterilisationsmittel wurde mindenstens 5 Jahre lang geprüft.
(§2) Die Entwicklung der Perioden der Organogenese wird zytologisch überwacht. Die Behandlung von Pflanzen mit dem Sterilisationsmittel erfolgt am Anfang der fünften Periode der Organogenese nach Kupermann.
(§3) Mit dem Ährenschieben verwirklicht man die Isolierung von Hauptähren und anderen Stockwerken in Pergamentbeuteln. Bei Weizen und Tritikale werden Einzelisolatoren benutzt. Bei Roggen schließt man je Ähre 5 bis 7 verschiedene nebeneinander befindliche Pflanzen unter einen gemeinsamen Isolator ein. Bei Hierse wird jede Rispe getrennt isoliert. Der Sterilitätsprozentsatz (X) für Weizen, Roggen, Tritikale und Hirse wird nach der Formel [formula] ermittelt.
(§4) Die Kornzahl in nicht isolierten Ähren von Kontrollpflanzen wird bedingt für 100 % Ansetzen bei freier Bestäubung angenommen.
Um zuverlässige Angaben zu erhalten, verwendet man 20 bis 25 Isolatoren jeder Wiederholung für Weizen und Tritikale, 10 .bis 15 Isolatoren jeder Wiederholung für Roggen und Hirse. […]

Hirse = assay: Field test of gametocidal activity (sterilisation of anthers), millet; type: in vivo
Description: as §1, §2, §3, §4
Um zuverlässige Angaben zu erhalten, verwendet man 20 bis 25 Isolatoren jeder Wiederholung für Weizen und Tritikale, 10 .bis 15 Isolatoren jeder Wiederholung für Roggen und Hirse.
Pflanzen der Hirse Sorte Mironowskoe 94 werden in der V. Periode der Organogenese (nach Kupermann) mit 1%iger wäßriger Emulsion von 4-Karboxybutyldezylsulfid, δ, δ' -Sulfonyldivaleriansäure, Bis(2-äthylhexyläther) der δ, δ' -Thiodivaleriansäure behandelt. Die Emulsion enthält 0,1 Masse% Kalziumalkylbenzolsulfonat mit 12 bis 14 Kohlenstoffatomen und 0,01 Masse% Dodezylsulfat. Der Verbrauch an Präparat beträgt 10 kg/ha. Als Kontrolle dienen Pflanzen, behandelt mit einem Verdünner ohne Sterilieationsmittel. Die Prüfergebnisse sind in der Tabelle 14 angegeben. […] Periode der Organogenese erhalten.
Pflanzen der Hirse Sorte K9009, Poltawskaja oblast (Poltawaer Gebiet) werden in der V.Periode der Organogenese (nach Kupermann) mit 1%iger wäßriger Emulsion von δ, δ' Thiodivaleriansäure, Natriumsälz der δ, δ'- -Thiodivaleriansäure, δ, δ' -Sulfonyldivaleriansäure, Bis([…]) der d, δ' -Thiodivaleriansäure, 4-Karboxybutyldezylsulfid behandelt. Die Emulsion enthält 0,1 Masse% Kalziumalkylbenzolsulfonat mit 12 bis 14 Kohlenstoffatomen und 0,01 Masse% Tetrahydrofuran, Der Verbrauch an Präparat beträgt 6 kg/ha. Als Kontrolle dienen . Pflanzen, behandelt mit einem Verdünner ohne Sterilisationsmittel. Die Prüfergebnisse sind in der Tabelle 15 angegeben. […] Periode der Organogenese erhalten.
Pflanzen der Hirse Sorte K-9693 Kormowoe 1 werden in der V. Periode der Organogenese (nach Kupermann) mit l%iger wäßriger Emulsion von Bis(di-n-butyläther) der δ, δ' -Thiodivaleriansäure, Natriumsalz der δ, δ' -Sulfonyldivaleriansäure behandelt. Der Verbrauch an Präparat beträgt 6 kg/ha. Als Kontrolle dienen Pflanzen, behandelt mit einem Verdünner ohne Sterilisationsmittel. Die Prüfergebnisse sind in der Tabelle 16 angegeben. […] Periode der Organogenese erhalten.

[1] = Sorte K9009, Poltawskaja oblast

| SMILES | Ergebnisse bei der Behandlung in der VI. Periode der Organogenese (Hirse; Sorte Mironowskoe 94) | Ergebnisse bei der Behandlung in der VI. Periode der Organogenese (Hirse; [1]) | other results |
| --- | --- | --- | --- |
| CCCCC(CC)COC(=O)CCCCSCCCCC(=O)OCC(CC)CCCC (stereo not shown) [Beispiel 22, Bis(2-äthylhexyläther) der δ, δ' -Thiodivaleriansäure] |  |  | Ergebnisse bei der Behandlung in der VI. Periode der Organogenese (Sommerweizen): ähnlichen Ergebnisse |
| CCCCCCCCCCSCCCCC(=O)O [Beispiel 65, 4-Karboxybutyldezylsulfid] | ähnlichen Ergebnisse |  |  |
| O=C(O)CCCCS(=O)(=O)CCCCC(=O)O [Beispiel 66, δ, δ' -Sulfonyldivaleriansäure] | ähnlichen Ergebnisse |  |  |
| CCCCC(CC)COC(=O)CCCCSCCCCC(=O)OCC(CC)CCCC (stereo not shown) [Beispiel 67, Bis(2-äthylhexyläther) der δ, δ' -Thiodivaleriansäure] | ähnlichen Ergebnisse |  |  |
| O=C(O)CCCCSCCCCC(=O)O [Beispiel 68, δ, δ' Thiodivaleriansäure] |  | ähnlichen Ergebnisse |  |
| O=C([O-])CCCCSCCCCC(=O)[O-].[Na+].[Na+] [Beispiel 69, Natriumsälz der δ, δ'- -Thiodivaleriansäure] |  | ähnlichen Ergebnisse |  |
| O=C(O)CCCCS(=O)(=O)CCCCC(=O)O [Beispiel 70, δ, δ' -Sulfonyldivaleriansäure] |  | ähnlichen Ergebnisse |  |
| CCOCCOC(=O)CCCCSCCCCC(=O)OCCOCC [Beispiel 71, Bis(2-äthylglykoläther) der d, δ' -Thiodivaleriansäure] |  | ähnlichen Ergebnisse |  |
| CCCCCCCCCCSCCCCC(=O)O [Beispiel 72, 4-Karboxybutyldezylsulfid] |  | ähnlichen Ergebnisse |  |
| O=C([O-])CCCCS(=O)(=O)CCCCC(=O)[O-].[Na+].[Na+] [Beispiel 74, Natriumsalz der δ, δ' -Sulfonyldivaleriansäure] |  |  | Ergebnisse bei der Behandlung in der VI. Periode der Organogenese (Hirse; Sorte K-9693 Kormowoe 1): ähnlichen Ergebnisse |
